## Results of single-concentration screens

Values are the deposited “Percent Effect”, in %.
The controls that fix the scale are not given in the record; negative values are as filed.
Compounds were drawn at random from those tested, without regard to their results.
Two or more numbers in one place are separate tests of the same structure; such repeats can differ widely.

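Phenotypic screen: M. tuberculosis growth, glucose 7H9 medium, 3 days; the read-out is not stated. Compounds at 50 µM. Higher reads as more growth inhibition (inferred: compounds with an IC50 in retests scored well above the rest). Of about 69,000 compounds tested this way, about 760 (1.1%) reached 50% or more in at least one test.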

SMILES: [H][C@@]12CCN(C[C@@H]1CC)[C@@H](CNCc1ccc(OC)cc1)C2
percent effect: -7.376 and 7.121

SMILES: CC(=O)N1CC(C(=O)NCCc2ncc(C)s2)C1
percent effect: -44

SMILES: Cc1ccc2c(c1)[C@@H](CC(=O)N1CCN(C)CC1)CCO2
percent effect: 3.375

SMILES: Cn1c(C2CCCN2C(=O)CN2CSCC2=O)nc2ccccc21 (stereo not drawn)
percent effect: 5.362 and 5.777

SMILES: O=C(c1ccc(Cl)cc1)N1CCC(N2CCCCC2=O)CC1
percent effect: 19.11

SMILES: CC(NC1CCN(C(=O)C2CCCCC2)CC1)c1nccs1 (stereo not drawn)
percent effect: 10.23 and 8.368

SMILES: CCCc1nc(N2CCC(C)CC2)c2c(n1)c(C)nn2CC
percent effect: 27.94 and 11.62

SMILES: CN(C)Cc1cnc(C2CCN(C(=O)c3cc(F)cc(F)c3)C2)[nH]1 (stereo not drawn)
percent effect: -14.15

SMILES: CC(C)(C)CC(=O)N1[C@@H](c2ccco2)[C@@H](CO)C[C@]12CCCCNC2=O
percent effect: -4.69

SMILES: COc1c(CNCc2cccc(Cn3cncn3)c2)c(C)nn1C
percent effect: 2.827 and 1.785

SMILES: Cl.c1cnc(N2CCCC(NCc3ccc(-n4ccnc4)cc3)C2)nc1 (stereo not drawn)
percent effect: 14.3

SMILES: Cc1ccc2c(n1)N(C)CCN(C(=O)NC(C)C)C2.O=C(O)C(F)(F)F
percent effect: -5.53 and 19.81

SMILES: CCc1ccc(C2CCCCCN2Cc2nc(CCOC)no2)o1 (stereo not drawn)
percent effect: 13

SMILES: [H][C@]12CC[C@]([H])(CN(C(C)=O)C1)N(C(=O)c1cccnc1SC)C2
percent effect: -9.875

SMILES: COCC(=O)N1CCC2(CC(C(=O)NCc3cccnc3)=NO2)C1 (stereo not drawn)
percent effect: 13.9 and 8.998

SMILES: Cc1cccc(N(CCC(N)=O)C(=O)c2cnccn2)c1
percent effect: -16.98

SMILES: CC1(C)CC(N2Cc3nc(N4CCOCC4)ncc3C2=O)CC(C)(C)N1
percent effect: -62.81

SMILES: Cc1nccn1-c1ccc(=O)n(CCNC(=O)Cc2ccccc2)n1
percent effect: -3.464

SMILES: Cc1nc(C2CCCN(C(=O)c3cc(-c4ccccc4)[nH]n3)C2)no1 (stereo not drawn)
percent effect: 22.82

SMILES: NC(=O)Cn1cc(NC(=O)N2CCCC2)cn1
percent effect: -39.07

SMILES: COc1cc(C2(C(=O)NC3CCC4(CC3)OCCO4)CC2)ccc1C
percent effect: 28.86

SMILES: CN(C)C(=O)c1n[nH]c2c1CN(CC1CCCCC1)C2.O=C(O)C(F)(F)F.O=C(O)C(F)(F)F
percent effect: -9.05

SMILES: O=C(CC1CCCC1)NCCn1nc2ccccn2c1=O
percent effect: -7.238

SMILES: Cc1nc(C2CCCN2C(=O)CCc2ccc(F)cc2)ncc1C(N)=O (stereo not drawn)
percent effect: -5.385

SMILES: O=S1(=O)CCN2C(=N1)Oc1ccc(S(=O)(=O)N3CCCC3)cc12
percent effect: 23.43

SMILES: O=C(Nc1nncs1)N1CCCN(C2CCCC2)CC1
percent effect: -7.85 and -20.04

SMILES: Cc1nc(Nc2nccs2)cc(C2CN(C(C)C)C2)n1
percent effect: -23.64

SMILES: CC(C)N(C)[C@@H]1CCN(C(=O)[C@H]2CCCO2)[C@H]1Cc1cnn(C)c1
percent effect: -4.88 and -6.582

SMILES: Cn1cc(C(=O)Nc2ccc3c(c2)CN(C(=O)C2CC2)CC3)nn1
percent effect: 5.884

SMILES: Cn1nc(Cn2ccnc2)c2c1CN(c1ncccn1)C2.O=C(O)C(F)(F)F
percent effect: 1.656 and -5.461

SMILES: CC(=O)N[C@@H]1CN(S(=O)(=O)Cc2ccccc2)C[C@H]1C(C)C
percent effect: 25.9

SMILES: COc1ccccc1CCN1CCCC(CN(C)Cc2cc(C)n[nH]2)C1 (stereo not drawn)
percent effect: 15.01

SMILES: CN1CCc2c(C#N)c(NCc3ccncc3)n3cnnc3c2C1
percent effect: -8.104

SMILES: CC(C)(C)N1CC(C(=O)N2CC(Oc3ccc(F)cc3)C2)CC1=O (stereo not drawn)
percent effect: -29.99

SMILES: CC1(C(=O)NCc2ccsc2)CCOCC1
percent effect: -2.783

SMILES: CN(Cc1cn2c(n1)CN(Cc1nccs1)CC2)Cc1ccco1.O=C(O)C(F)(F)F.O=C(O)C(F)(F)F
percent effect: 6.65

SMILES: O=C(O)C(F)(F)F.O=C(O)C(F)(F)F.[H][C@]12CC(=O)N(Cc3cccc(C)n3)[C@@]1([H])CCN2Cc1ccco1
percent effect: -9.66

SMILES: CCOc1cc(=O)n2c(c1C(=O)OCc1ccc(F)cc1)CCCC2
percent effect: 2.498

SMILES: O=C(O)c1ccc(CN2CCC(c3ccnc4ccnn34)CC2)cc1
percent effect: -17.74

SMILES: Cc1ccc(C2(O)CCN(C(=O)c3cccc(S(C)(=O)=O)c3)CC2)nc1
percent effect: 17.44

SMILES: Cc1n[nH]c(C)c1CNc1nc(-c2ccco2)nc2c1CCNCC2
percent effect: -11.15

SMILES: O=C1CC(c2ccccc2)C2(CCN(Cc3ccncc3)CC2)N1 (stereo not drawn)
percent effect: -24.39

SMILES: COCCCN1CCCN(C(C)C(=O)Nc2cccc(I)c2)CC1 (stereo not drawn)
percent effect: -15.18

SMILES: COc1ccc(CNC(=O)N2CCN(CC(O)C3CC3)CC2)cc1.Cl (stereo not drawn)
percent effect: 8.774

SMILES: Cn1nc2c(cc1=O)CN(Cc1nc(N)c3ccccc3n1)CC2
percent effect: 21.27

SMILES: CC(C)N1CCC(Cc2cncc(-c3cccc(C(=O)O)c3)n2)C1 (stereo not drawn)
percent effect: 9.501

SMILES: CN(C)Cc1cc(C2CCCCN2S(=O)(=O)Cc2ccccc2)nn1C.Cl (stereo not drawn)
percent effect: 6.104

SMILES: Cc1nn(C)c(N(C)C)c1CNC(C)COc1cccc(F)c1 (stereo not drawn)
percent effect: -5.755

SMILES: CC(c1cccc(Cl)c1)N(C)CCS(=O)(=O)CCC(N)=O (stereo not drawn)
percent effect: 23.9

SMILES: CCNC(=O)NC(=O)CN1CCC(c2c[nH]c3ccc(OC)cc23)CC1
percent effect: 4.52

SMILES: CN1C(=O)C(C)(C)COc2ccc(NS(=O)(=O)Cc3ccccc3)cc21
percent effect: -6.94

SMILES: Cc1cccc2c1nc(CCO)n2-c1ccc(N)nc1
percent effect: -6.374

SMILES: CCn1cnnc1CNC(=O)N1CCC(C(=O)NC)CC1
percent effect: -14.22

SMILES: CCc1cnc(CN(C(C)=O)C2CCN(CCc3cccs3)C2)o1 (stereo not drawn)
percent effect: -1.913

SMILES: CCN(CC)C(=O)[C@@H]1C[C@@H](NC(=O)c2ccn(C(C)(C)C)c2)CN1C
percent effect: -37.78

SMILES: O=C(c1ccc[nH]1)N1CCOCC2(CCN(C3CCOCC3)C2)C1 (stereo not drawn)
percent effect: 23.69

SMILES: O=C(O)C(F)(F)F.[H][C@@]12COC[C@]1(C(=O)NCCc1cccs1)CN(C1CCOCC1)C2
percent effect: 17.61

SMILES: CN(C)CCCNC(=O)c1cc(-c2ccc3c(c2)CCO3)n[nH]1
percent effect: 17.02

Data taken from ChEMBL document CHEMBL3988442, “University of Dundee, Small-Polar-MMV Screening Library” (2021).